# Assay results published in patent US9814730B2 (FLAMINA HOLDING AG, priority 2013, dated 2017).
# At least one compound was matched to its structure with a doubt left.
# Tests used:
# [1] = tested on: autocrine HCG production in adult cells; experiment: Inhibition of autocrine HCG production in adult cells (in vitro experiments); assay type: cell-based, human; settings: very low amount of active agent
# Description: Extrapolations of in vitro experiments indicate that already 0.1 mg to 2 mg per kg body weight and per year, preferably 0.5 mg to 1 mg per kg body weight and per year of the active agent are sufficient. However, as detailed below the dosage can be up to a factor 5 higher and can thus range between 0.1 mg to 10 mg per kg body weight and per year.
# cancer cells = cancer cells exposed to Mifepristone; cited from earlier work
compound,measurement,setting,value
"CC#C[C@]1(O)CC[C@H]2[C@@H]3CCC4=CC(=O)CCC4=C3[C@@H](c3ccc(N(C)C)cc3)C[C@@]21C [RU486, 11β-[4-N,N-(dimethylamino)phenyl]-17β-hydroxy-17α-propinyl-estra-4,9-dien-3-one]",inhibition of autocrine HCG production,[1],successfully achieved
same,growth of existing cancer cells,cancer cells,reduced
